Hit rate of the full screen: of about 31,000 sequences, about 1,400 (4.5%) were called active.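 How the source made its calls: active means median seed-adjusted z-score above 1 or below -1; inactive means the rest.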 This is one part of the list.
Experiment: Novel Modifiers of Survival Motor Neuron (SMN) Protein: Gene Identification via Genome-wide siRNA Screen;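 further: luminescence tracks full-length SMN protein made from the SMN2 reporter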
Settings: HEK293T SMN2-luciferase reporter, siRNA knockdown, 72 h; actives lie on both sides
In short: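 Luciferase signal, proportional to full-length SMN made from an SMN2 cDNA reporter in stable HEK293T cells, was read 72 h after siRNA reverse transfection. Values were expressed as MAD scores after non-targeting-control normalization and log10 conversion; seed analysis flagged off-targets.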
For GGAACCUCCUGACCAACAATT against FLRT2, the median seed-adjusted z-score was inactive: -0.00573. In the case of GGUUAAAAUAUACUCUAUATT against HPCAL4, the median seed-adjusted z-score is reported as inactive: 0.282. With AAACAGGAGGUGAUCGAUATT against IKBKG the median seed-adjusted z-score was inactive: -0.615. In the case of GCAUCGCAGAUGAGGCUUUTT against LRFN2, the median seed-adjusted z-score is reported as inactive: 0. In the case of CCGGAACAUUUAUCCUAUUTT against SMURF2, the median seed-adjusted z-score is reported as inactive: 0.351. For GUAUUGAAACAUAAACGUATT against ZNF148, the median seed-adjusted z-score was inactive: 0.307. With GAGCUUCACGCAGAACUAUTT against ZNF496 the median seed-adjusted z-score was inactive: -0.971. For CCAUCAUUAUAUUCCUCAUTT against MAS1, the median seed-adjusted z-score was inactive: -0.0551. In the case of GGCUCGUAUACAUCCAUUUTT against TROVE2, the median seed-adjusted z-score is reported as inactive: 0.399. With GGAUCGAACAGAUGGAGGATT against NISCH the median seed-adjusted z-score was inactive: -0.0757. For CUCUCUAACUAAUCGAUCATT against PDE3B, the median seed-adjusted z-score was inactive: -0.0475. In the case of CACAACAUCUUGUAAGACUTT against GNG13, the median seed-adjusted z-score is reported as inactive: -0.516. With GGAUGAUUGGAGGACCUAUTT against ALDH7A1 the median seed-adjusted z-score was inactive: -0.406. For CGAGUGCUCCAGUUUAAGATT against GALK2, the median seed-adjusted z-score was inactive: 0. In the case of GCCUUCCAUCAGUCGGAUATT against G6PD, the median seed-adjusted z-score is reported as inactive: 0.593. With CAUAAUAACCGUUACCAAATT against CSF1R the median seed-adjusted z-score was inactive: 0.38. In the case of GGAUCAAUGAGUUCUCCAUTT against FMOD, the median seed-adjusted z-score is reported as active: -1.32. For GACUUCCGCAGAAAAGUAATT against PTPRN2, the median seed-adjusted z-score was inactive: -0.104. In the case of GUGAGAAACUGGAUAAGAATT against ATF4, the median seed-adjusted z-score is reported as inactive: 0. For GGCUGAAAGUCGACAAGGATT against PANK4, the median seed-adjusted z-score was inactive: 0.00068. In the case of GGGCAUGGGUUUUAAUCGATT against PYGO1, the median seed-adjusted z-score is reported as active: -1.23. For GGUGAAGAGAGGUUUUGAATT against 7-Sep, the median seed-adjusted z-score was inactive: -0.00715. With GGGCUUUUCCGGAACCUGATT against TRIM46 the median seed-adjusted z-score was inactive: 0.034. With GGCUAUGAUUCAGUGCAAATT against ATP6V1H the median seed-adjusted z-score was inactive: 0.146. With GCAACGCAAGGGUGAGAAATT against SLC25A44 the median seed-adjusted z-score was inactive: -0.0685. For CCAAAGCCCUUCCAAGACATT against ZBTB7C, the median seed-adjusted z-score was inactive: 0.447. In the case of CUAUGGUCCUAGUAGGAAATT against KRAS, the median seed-adjusted z-score is reported as inactive: -0.0469. In the case of CUAUCACCAUGGUUACGAATT against ARHGAP26, the median seed-adjusted z-score is reported as inactive: 0.34. With UGGUUUCAAGGAACCGAAATT against DBNL the median seed-adjusted z-score was inactive: 0.398. In the case of CCUUCUUAAGAGUACCUGATT against SLC2A4, the median seed-adjusted z-score is reported as inactive: 0.0588. For AAAUGGACCCUUUUCAUUATT against FXYD6, the median seed-adjusted z-score was inactive: -0.214. With GCACAGAGGCCGACAAGAATT against THOP1 the median seed-adjusted z-score was inactive: 0.643. With GGCAUACUAAAUAAGCUUATT against EIF4G2 the median seed-adjusted z-score was inactive: -0.386. For GGCCUUAGAUGAGUCCCUATT against PABPN1, the median seed-adjusted z-score was inactive: -0.757. With GGAGCAAGGUGAAAUACAUTT against NTHL1 the median seed-adjusted z-score was inactive: 0.364. In the case of GGAGGAGCAUCUCACAAUATT against XYLB, the median seed-adjusted z-score is reported as inactive: -0.414. For CUGACAGUGUGGAUCGAUATT against COL12A1, the median seed-adjusted z-score was inactive: 0.00422. In the case of GCAGAAACCCAGAUCGAGATT against PLAT, the median seed-adjusted z-score is reported as inactive: 0.246. With GCUUACUCGGGUGCUCUUATT against ZDHHC16 the median seed-adjusted z-score was inactive: 0.0194. With AGAGGAAGUUGAAUUAUUATT against BRD3 the median seed-adjusted z-score was inactive: 0.633. With GGCACGAGAUGAAACGAAATT against STX3 the median seed-adjusted z-score was inactive: 0.686. For CCAUGGUGACUUACCCUAUTT against ZC3H10, the median seed-adjusted z-score was inactive: -0.79. With UCUUUUGCCUCCUUAAAUATT against PRPH the median seed-adjusted z-score was inactive: 0. With GAAGGUUCCUGAUGCUAUATT against PHF12 the median seed-adjusted z-score was inactive: 0.784. With CGAUACCGGGAAGACCUGATT against PSMB6 the median seed-adjusted z-score was inactive: -0.579. In the case of CUGCAUCAGCGGUCCUCUATT against HAS1, the median seed-adjusted z-score is reported as inactive: -0.416. In the case of GCAUGAUAAAGCUCAAAUATT against PHF6, the median seed-adjusted z-score is reported as inactive: -0.268. In the case of GGUUUUUGAUCUUUGCGUATT against NR2C1, the median seed-adjusted z-score is reported as inactive: 0.386. With GUUCUGCGCUAUACCAAUATT against PEPD the median seed-adjusted z-score was inactive: -0.00401. For ACACUUUGGGCAUCGAAUATT against GNAO1, the median seed-adjusted z-score was inactive: 0.233. With CAGUCUUGGUGGACCUAGATT against TUBB1 the median seed-adjusted z-score was inactive: -0.289. In the case of GGCACGAUACCUAAAAGAATT against NEFL, the median seed-adjusted z-score is reported as inactive: 0.305. In the case of GAACAGAUCCGGAAGAAGATT against NR1H2, the median seed-adjusted z-score is reported as inactive: 0.069. In the case of GGAAAGAAAGUGUAUGUCATT against SAG, the median seed-adjusted z-score is reported as inactive: 0. In the case of CGCAUACUCUCGCCCUGUATT against ZNHIT2, the median seed-adjusted z-score is reported as inactive: -0.339. In the case of AGUGCGCCCUGAUAUGACATT against RBCK1, the median seed-adjusted z-score is reported as inactive: 0.479. In the case of GCCUCCGAGUUCUACGAGATT against GPSM1, the median seed-adjusted z-score is reported as inactive: -0.275. In the case of GGACUAUACUGAGAGCCUATT against USP22, the median seed-adjusted z-score is reported as inactive: 0. For GUUUGAGGCUGAUAAAACATT against EDA2R, the median seed-adjusted z-score was inactive: 0.424. With GCUUCAGAGUUCUCUAAAATT against BTF3L4 the median seed-adjusted z-score was inactive: 0.143. With GGAUGUUUCCUACCUAUAUTT against FOLR1 the median seed-adjusted z-score was active: -1.31. With UCCAAUCCCUCACCACUCATT against LIMS2 the median seed-adjusted z-score was inactive: 0. With CAGUCUAACUCCUAUAUCATT against KRTAP2-2 the median seed-adjusted z-score was inactive: -0.212. In the case of ACAUUGAUACGUCCAUGUATT against SERTAD2, the median seed-adjusted z-score is reported as inactive: 0.43. In the case of GCUGGUUUCUGAUCGAUAUTT against TDRD5, the median seed-adjusted z-score is reported as inactive: -0.0961. For CGACGACAGCUGAAGCAGATT against ADORA2A, the median seed-adjusted z-score was inactive: 0. For GUAACUUCGUCAAGUCUAATT against GK2, the median seed-adjusted z-score was inactive: 0. For CGGCGACAGUAGGAGGAAATT against KCNK13, the median seed-adjusted z-score was inactive: -0.0924. With GCUGGUUGCUUGUACAACATT against LRP1 the median seed-adjusted z-score was inactive: -0.781. With GGCUUGGAUUCAGAUCUCATT against SERPINF1 the median seed-adjusted z-score was inactive: -0.145. For GGAGAAUGGAUACAUCAAUTT against RGL2, the median seed-adjusted z-score was inactive: 0.174. In the case of GUACGACCGUAUUCUCCGATT against WNT1, the median seed-adjusted z-score is reported as inactive: 0. For GCAGUGACCUUCAAAGUGATT against PTPRN2, the median seed-adjusted z-score was inactive: -0.104. With GAGACGAGCUUUAAUGACATT against SH3BP4 the median seed-adjusted z-score was inactive: -0.0622. For CUUUGAUAAUGGAGCGAGATT against PILRA, the median seed-adjusted z-score was inactive: 0.0834. With ACACGGAGGAUGAAGCUAATT against CYC1 the median seed-adjusted z-score was inactive: -0.47. With AGAUGAAGUUGGGAAGGGUTT against LTBR the median seed-adjusted z-score was inactive: 0. With UCAGCUCCAUUAAUAGAAUTT against PAX8 the median seed-adjusted z-score was inactive: 0. In the case of GUGCUCGAAUGAUAACUAUTT against RAB2A, the median seed-adjusted z-score is reported as inactive: -0.038. In the case of GGUUGCCCAUCUUACUCUATT against ZNF470, the median seed-adjusted z-score is reported as active: -1.26. For CAGCAACCAGAGGAGUAUATT against TCF20, the median seed-adjusted z-score was inactive: 0.392. In the case of ACAAGUUCAUCACACGCUATT against STK25, the median seed-adjusted z-score is reported as inactive: -0.0703. For GCCUAGACCUCUUCGCUUUTT against PASK, the median seed-adjusted z-score was inactive: 0. For GAAGCAUCGGGAAAGCAAATT against ZNF684, the median seed-adjusted z-score was inactive: 0.189. With CUGCAAGACUUGGAGCUAATT against HDLBP the median seed-adjusted z-score was active: -1.18. With UCAAAGUGUUCGACACUGATT against MYLC2PL the median seed-adjusted z-score was inactive: -0.7. For GGACAAGACUCUCAAGAUUTT against MGLL, the median seed-adjusted z-score was inactive: 0.288. With GGUCUAGGGAGGUUGUUCATT against TUBG2 the median seed-adjusted z-score was inactive: 0. For CCAUUGGAGUGGACUUCGATT against RAB34, the median seed-adjusted z-score was inactive: 0.342. For GCUCAGCUCUACCUGCAUATT against CYP4A22, the median seed-adjusted z-score was inactive: -0.479. In the case of AAAAACUCGUAUUUCUAAUTT against ZNF701, the median seed-adjusted z-score is reported as inactive: -0.0161. In the case of CUCAAGAUCUGGUUAGUCUTT against DDR1, the median seed-adjusted z-score is reported as inactive: -0.166. For UGACUUUGCUCAUACCACATT against IHPK3, the median seed-adjusted z-score was inactive: -0.173. For GCAAGACCUGGUCAGUAUATT against NOX4, the median seed-adjusted z-score was inactive: -0.246. With GCCUUUGGUUAACACCUAUTT against MYBPC1 the median seed-adjusted z-score was inactive: 0.295. In the case of GCAUUGUACUUGCCUCUUUTT against KCNS1, the median seed-adjusted z-score is reported as inactive: -0.167. In the case of GGAGUCAACUCACCACCAUTT against SLC17A4, the median seed-adjusted z-score is reported as inactive: 0.262. With GGACAACAACGACCACCGATT against PPP1R3D the median seed-adjusted z-score was inactive: 0. With GGAGAGGAAUCAUCUUGGATT against ZNF557 the median seed-adjusted z-score was inactive: -0.197. In the case of GCACAUCAACAUCAAGCUATT against LRRK1, the median seed-adjusted z-score is reported as inactive: 0.257. For GGACUUCAAUGACAGAAGATT against KHSRP, the median seed-adjusted z-score was inactive: -0.856. For CCCUACCAACAUUAAGUAUTT against CLDN7, the median seed-adjusted z-score was inactive: 0.0208. In the case of CCCUGGUAGUCAAAAACGATT against PHKB, the median seed-adjusted z-score is reported as inactive: -0.142. With GCAGAUCAGCAAAUACUGUTT against IPPK the median seed-adjusted z-score was inactive: 0.389. In the case of UGCCUUAUCUGGAAGCAAATT against ERMAP, the median seed-adjusted z-score is reported as inactive: -0.276. In the case of GCACUGUAGUCAGAGAUGATT against KCNMB3, the median seed-adjusted z-score is reported as inactive: 0.513. With GCAAGACAACCAUUCUGUATT against ARF4 the median seed-adjusted z-score was inactive: 0.346. In the case of GGAUACCUACCACAAGGUUTT against NPHS2, the median seed-adjusted z-score is reported as inactive: -0.857.
